Results reported in paper PMC3968014, “Design and Synthesis of a Library of Lead-Like 2,4-Bisheterocyclic Substituted Thiophenes as Selective Dyrk/Clk Inhibitors” (PLoS ONE, 2014).

Protein sequences, listed by entry. Tags and fused reporters are not part of them.
UniProt Q9Y463, whole entry: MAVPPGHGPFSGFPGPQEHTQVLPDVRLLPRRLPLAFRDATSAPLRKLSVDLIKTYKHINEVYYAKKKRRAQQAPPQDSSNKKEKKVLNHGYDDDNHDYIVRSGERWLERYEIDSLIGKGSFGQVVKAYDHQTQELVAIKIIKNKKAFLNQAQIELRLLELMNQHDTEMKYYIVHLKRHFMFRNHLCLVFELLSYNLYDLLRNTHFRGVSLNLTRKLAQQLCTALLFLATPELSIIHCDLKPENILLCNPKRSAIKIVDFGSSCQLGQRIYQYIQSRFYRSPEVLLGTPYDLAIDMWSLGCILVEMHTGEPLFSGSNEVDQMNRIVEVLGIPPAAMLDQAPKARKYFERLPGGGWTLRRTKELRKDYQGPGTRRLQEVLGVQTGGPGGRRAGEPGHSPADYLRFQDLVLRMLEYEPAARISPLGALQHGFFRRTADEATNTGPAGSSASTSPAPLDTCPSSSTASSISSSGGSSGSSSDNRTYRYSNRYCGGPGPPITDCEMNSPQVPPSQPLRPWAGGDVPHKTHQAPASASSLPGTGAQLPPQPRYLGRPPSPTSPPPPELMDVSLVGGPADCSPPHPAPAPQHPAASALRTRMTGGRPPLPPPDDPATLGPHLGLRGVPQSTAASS

Target: T1, Dyrk1B (Homo sapiens, UniProt Q9Y463)
T1 construct: purchased Life Technologies PV4649 (LOT # 877059G)
Test: Dyrk1B kinase assay (32P-ATP, Woodtide)
Type: biochemical

## COc1ccc2c(c1)[nH]c1c(C)nccc12 [Harmine, harmine, reference compound]
  Kd: 145 nM
IC50 Dyrk1B, 100 µM ATP
  IC50: 228 nM
